Reference: US6184422A, “Cyclohexanediol derivatives” (priority 1998, dated 2001)

Legend:
[1] = system: epidermal proliferation in minipigs; conditions: oral, TI relative to calcitriol
Method: Orally administered vitamin D analogs can lead to epidermal proliferation in minipigs. This skin effect is considered as indicative for an antipsoriatic potential of vitamin D analogs. […] The pigs were daily observed as to adverse effects such as behavior, mobility, stool. At day seven bromodeoxyuridine (4 mg/kg) was injected intravenously into the treated pigs and 2 hours later skin biopsies (6 mm diameter) and blood were taken for analysis. The skin biopsies were fixed in formalin, and paraffin sections were prepared using standard procedures. Using standard immuno-histochemical techniques, cells in the S-phase (DNA synthesis phase) were labelled by the binding of a specific monoclonal antibody against the thymidine analogue bromodeoxyuridine. The number of labelled epidermal cells per unit of length along the surface was taken as a measure of epidermal proliferative activity (labelings index LI). Clinical chemistry was performed using Cobas Mira.
*The effective dose is the dose that increases the normal LI at least 50%

[2] = Calcium Liability (Tolerance Test in Mice); conditions: Table I; relative to calcitriol; HTDsc mouse and VDR activation
Excerpt: 1. Calcium Liability (Tolerance Test in Mice)
This test gives a global picture of calcemic liability. Profound changes in calcium homeostasis strongly affect the weight development of the animals. This parameter was used as a primary test for tolerance. […] Body weight was registered just before and at the end of a 5 day treatment period.

[3] = system: epidermal thickening (acanthosis) in hairless mice; assay: The Mouse Model: epidermal thickening (acanthosis) in hairless mice; conditions: Table II, oral, relative to calcitriol

SMILES | Rel. shift [1] | TI shift (ratio HTD/VDR of test compound divided by ratio HTD/VDR of calcitriol) [2] | TI shift (ratio HTD/ED50 for test compound divided by ratio HTD/ED50 for calcitriol) [3]
C=C1/C(=C\C=C2/CCC[C@]3(C)[C@@H]([C@H](C)CCCC(C)(C)O)CC[C@@H]23)C[C@@H](O)C[C@@H]1O [Calcitriol, reference compound] | 1 |  | 
C=C1/C(=C\C=C\CCCC(C)(C)CCCC(O)(C(F)(F)F)C(F)(F)F)C[C@@H](O)C[C@@H]1O [F, (Z)-(1R,3S)-5-[(2E)-12,12,12-trifluoro-11-hydroxy-7,7-dimethyl-11-trifluoromethyl-dodec-2-enylidene]-4-methylene-cyclohexane-1,3-diol] | > 35 | 111 | 200
CC(C)(CC#CC(O)(C(F)(F)F)C(F)(F)F)CCC/C=C/C=C1C[C@@H](O)C[C@H](O)C1 [I, (E)-(1R,3R)-5-[12,12,12-trifluoro-11-hydroxy-7,7-dimethyl-11-trifluoromethyl-dodec-2-en-9-ynylidene]-cyclohexane-1,3-diol] | > 42 | 144 | 63
C=C1/C(=C\C=C\CCCC(C)(C)C/C=C\C(O)(C(F)(F)F)C(F)(F)F)C[C@@H](O)C[C@@H]1O [B, (Z)-(1R,3S)-4-methylene-5-[(2E,9Z)-12,12,12-trifluoro-11-hydroxy-7,7-dimethyl-11-trifluoromethyl-dodeca-2,9-dienylidene]-cyclohexane-1,3-diol] | > 14 | 333 | 67
CC(C)(O)CCCC(C)(C)CCC/C=C/C=C1C[C@@H](O)C[C@H](O)C1 [H, (2E)-(1R,3R)-5-(11-hydroxy-7,7,11-trimethyl-dodeca-2-enylidene)-cyclohexane-1,3-diol] |  | 100 | 
CC(C)(C/C=C\C(O)(C(F)(F)F)C(F)(F)F)CCC/C=C/C=C1C[C@@H](O)C[C@H](O)C1 [A, (1R,3R)-5-[(2E,9Z)-12,12,12-trifluoro-11-hydroxy-7,7-dimethyl-11-trifluoromethyl-dodeca-2,9-dienylidene)-cyclohexane-1,3-diol] | > 350 | 78 | 67
CC(C)(CCC/C=C/C=C1C[C@@H](O)C[C@H](O)C1)CCCC(O)(C(F)(F)F)C(F)(F)F [Compound E, (1R,3R)-5-[(2E)-12,12,12-trifluoro-11-hydroxy-7,7-dimethyl-11-trifluoromethyl-dodec-2-enylidene)-cyclohexane-1,3-diol] |  | 83 | 100
CC(C)(O)C#CCC(C)(C)CCC/C=C/C=C1C[C@@H](O)C[C@H](O)C1 [K, (10E)-(3R,5R)-12-(3,5-dihydroxy-cyclohexylidene)-6,6-dimethyl-2-methyl-dodec-10-en-3-yn-2-ol] |  | > 127 | 
C=C1/C(=C\C=C\CCCC(C)(C)CCCC(C)(C)O)C[C@@H](O)C[C@@H]1O [G, (Z)-(1R,3S)-5-[(E)-11-hydroxy-7,7,11-trimethyl-dodec-2-enylidene]-4-methylene-cyclohexane-1,3-diol] |  | 250 | 167
CC(C)(C/C=C/C(O)(C(F)(F)F)C(F)(F)F)CCC/C=C/C=C1C[C@@H](O)C[C@H](O)C1 [D, (1R,3R)-5-[(2E,9E)-12,12,12-trifluoro-11-trifluoromethyl-11-hydroxy-7,7-dimethyl-dodeca-2,9-dienylidene]-cyclohexane-1,3-diol] |  | 100 | 50
C=C1/C(=C\C=C\CCCC(C)(C)CC#CC(O)(C(F)(F)F)C(F)(F)F)C[C@@H](O)C[C@@H]1O [J, (Z)-(1R,3S)-4-methylene-5-[(E)-12,12,12-trifluoro-11-hydroxy-7,7-dimethyl-11-trifluoromethyl-dodec-2-en-9-ynylidene]-cyclohexane-1,3-diol] | > 21 | 361 | 50
C=C1/C(=C\C=C\CCCC(C)(C)C/C=C/C(O)(C(F)(F)F)C(F)(F)F)C[C@@H](O)C[C@@H]1O [C, (Z)-(1R,3S)-5-((2E,9E)-12,12,12-trifluoro-11-trifluoromethyl-11-hydroxy-7,7-dimethyl-dodec-2,9-dienylidene)-4-methylene-cyclohexane-1,3-diol] |  | 278 | 67
